According to publication PMC7206020:
Results are given in words; binding and its absence hold for the method and conditions named. In cells and extracts the contact can be indirect. Some entries that bind do so weakly or less than the wild type. For part of these data: Where a sequence is shown, tags or fusion partners need not be part of it. Values belong to the binder of their own block, whether it stands above or below them.

Sequences of proteins named here, by UniProt entry; tags and fusion partners are left off.
UniProt P47811: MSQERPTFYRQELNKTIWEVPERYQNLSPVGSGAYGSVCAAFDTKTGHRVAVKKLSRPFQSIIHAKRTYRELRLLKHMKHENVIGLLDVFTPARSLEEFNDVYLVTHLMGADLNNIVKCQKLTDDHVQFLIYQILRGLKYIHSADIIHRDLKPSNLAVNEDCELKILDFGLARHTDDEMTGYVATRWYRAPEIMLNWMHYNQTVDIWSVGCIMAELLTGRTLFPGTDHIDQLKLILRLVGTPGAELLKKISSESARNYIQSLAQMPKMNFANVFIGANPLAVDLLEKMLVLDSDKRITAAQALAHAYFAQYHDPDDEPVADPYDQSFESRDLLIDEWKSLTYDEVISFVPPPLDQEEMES

How the values were obtained:
[1] = target: p38MAPKα, HA-tagged wildtype, expressed from pcDNA3.1-HA-p38 (WT) (UniProt P47811); assay: co-IP; Figure S5; cells, constructs and antibodies not shown
[2] = target: p38MAPKα, HA-tagged wildtype, expressed from pcDNA3.1-HA-p38 (WT) (UniProt P47811); assay: co-IP; lysates of 293T cells transfected with control, p38α and/or Prmt7 vectors, precipitated with anti-p38α or Prmt7 antibodies and immunoblotted
[3] = target: p38MAPKα, endogenous in C2C12 myoblasts (mouse (endogenous in C2C12)) (UniProt P47811); assay: co-IP; C2C12 lysates from a differentiation time course precipitated with anti-p38α antibodies

binding [1]: binds
binding [2]: binds
B1: Protein arginine methyltransferase 7 (Prmt7), HA-tagged, expressed from pcDNA3.1-HA-Prmt7 (enzyme, UniProt Q922X9 1-692)
chain: MKVFCGRANPTTGSLEWLEEDEHYDYHQEIARSSYADMLHDKDRNIKYYQGIRAAVSRVKDRGQKALVLDIGTGTGLLSMMAVTAGADFCYAIEVFKPMAEAAVKIVERNGFSDKIKVINKHSTEVTVGPDGDLPCRANILITELFDTELIGEGALPSYEHAHKHLVQEDCEAVPHRATVYAQLVESRRMWSWNKLFPVRVRTSLGEQVIVPPSELERCPGAPSVCDIQLNQVSPADFTVLSDVLPMFSVDFSKQVSSSAACHSRQFVPLASGQAQVVLSWWDIEMDPEGKIKCTMAPFWAQTDPQELQWRDHWMQCVYFLPQEEPVVQGSPRCLVAHHDDYCVWYSLQRTSPDENDSAYQVRPVCDCQAHLLWNRPRFGEINDQDRTDHYAQALRTVLLPGSVCLCVSDGSLLSMLAHHLGAEQVFTVESSVASYRLMKRIFKVNHLEDKISVINKRPELLTAADLEGKKVSLLLGEPFFTTSLLPWHNLYFWYVRTSVDQHLAPGAVVMPQAASLHAVIVEFRDLWRIRSPCGDCEGFDVHIMDDMIKHSLDFRESREAEPHPLWEYPCRSLSKPQEILTFDFQQPIPQQPMQSKGTMELTRPGKSHGAVLWMEYQLTPDSTISTGLINPAEDKGDCCWNPHCKQAVYFLSTTLDLRVPLNGPRSVSYVVEFHPLTGDITMEFRLADTLS

binding [3]: binds
B2: Protein arginine methyltransferase 7 (Prmt7), endogenous in C2C12 myoblasts (enzyme, UniProt Q922X9 1-692)
chain: B1 chain
